Values from PubChem BioAssay AID504793 (Drosophila RNAi Screening Center, 2011)

- Screen: 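Whole-genome screen for parts of the DNA damage checkpoint at G2/M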 (primary screen)
- System: Drosophila S2R+ cells
- Knock-down reagent: long dsRNA against Drosophila genes, about 0.25 µg dsRNA per well
- Duration: 4 days of dsRNA, then 4 hours of drug before read-out
- Treatment: doxorubicin 0.5 µM for 4 hours to cause double-strand breaks, in cells also given a low, harmless dose of dsRNA against nbs to sensitise the assay
- Measured: 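Per-well count of mitotic cells stained for phospho-histone H3 after doxorubicin exposure, used as mitotic index; counts are raw and not normalised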
- Direction: mitotic cells: higher = more cells in mitosis, weaker G2 arrest
- Call rule: 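Genes are called active only when high mitotic counts were reproduced with independent dsRNAs and mitosis was checked for delay without damage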
- Calls: active = confirmed in follow-up tests; inactive = not confirmed
The screen tested about 23,000 reagents; below is an unselected part of those that have a named target and a result. Over the whole deposit, 62 (0.27%) got an active call. 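Calls come from follow-up tests whose scores are not deposited, so confirmed genes may have low counts here; counts are not normalised per plate.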 Raw values are not corrected between plates. Unmarked entries are inactive. A plus sign joins genes that one reagent is predicted to hit. Reagent sequences are not shown.

The first 2 entries, to show the layout:
target	amplicon	mitotic cells, replicate 1	mitotic cells, replicate 2
Ste:CG33238 + Ste:CG33241 + Ste:CG33244 + 10 more	DRSC26515	6	
CG6729	DRSC02984	12	

Results, repeating the preview:
target	amplicon	mitotic cells, replicate 1	mitotic cells, replicate 2
Ste:CG33238 + Ste:CG33241 + Ste:CG33244 + 10 more	DRSC26515	6	
CG6729	DRSC02984	12	
CG6729	DRSC22793	9	
CG6729	DRSC29961	11	
CG12096	DRSC21692	11	
CG12096	DRSC27886	5	
CG12479	DRSC19459	9	
CG13110	DRSC02208	6	13
p130CAS + Dic61B	DRSC08588	3	
TfIIEalpha (Transcription factor IIEalpha)	DRSC11303	6	
TfIIEalpha (Transcription factor IIEalpha)	DRSC27748	10	
Hs6st (Heparan sulfate 6-O-sulfotransferase)	DRSC14348	13	
Hs6st (Heparan sulfate 6-O-sulfotransferase)	DRSC15182	10	
Hs6st (Heparan sulfate 6-O-sulfotransferase)	DRSC15581	17	
Hs6st (Heparan sulfate 6-O-sulfotransferase)	DRSC21732	13	
Sik3 (Salt-inducible kinase 3)	DRSC06505	3	
Sik3 (Salt-inducible kinase 3)	DRSC06771	3	
Sik3 (Salt-inducible kinase 3)	DRSC29149	4	
Sik3 (Salt-inducible kinase 3)	DRSC29722	11	
CG9897 + asRNA:CR42742	DRSC04595	2	
CG8170	DRSC07087	3	
Kap3 (Kinesin associated protein 3)	DRSC19426	4	
Kap3 (Kinesin associated protein 3)	DRSC25680	2	
Prosbeta4R2 (Proteasome beta4 subunit-related 2)	DRSC00503	5	
Prosbeta4R2 (Proteasome beta4 subunit-related 2)	DRSC28235	4	
BBS4 (Bardet-Biedl syndrome 4)	DRSC06352	17	
BBS4 (Bardet-Biedl syndrome 4)	DRSC28073	2	
Adgf-D (Adenosine deaminase-related growth factor D)	DRSC16521	5	
Gr8a (Gustatory receptor 8a)	DRSC18043	11	
CG33124	DRSC00298	3	
Ir75a (Ionotropic receptor 75a)	DRSC10188	7	
spz5 (spatzle 5)	DRSC08645	9	
CG34459	DRSC06973	5	
CG33258	DRSC09415	4	
CG33258	DRSC23590	8	
Sumo (Small ubiquitin like modifier)	DRSC03611	16	
CG5267	DRSC06928	6	
zyd (zydeco)	DRSC20716	5	
bol (boule)	DRSC08964	5	
bol (boule)	DRSC10444	8	
bol (boule)	DRSC11329	4	
bol (boule)	DRSC26869	7	
CG42390	DRSC23064	20	
CG42390	DRSC23065	14	
sim (single-minded)	DRSC17054	8	
sim (single-minded)	DRSC28753	4	
GstT1 (Glutathione S transferase T1)	DRSC06243	4	
CG5281	DRSC15761	3	
CG13306	DRSC09976	6	
z (zeste)	DRSC23134	14	
TBC1d7 + mRpS24	DRSC14611	5	
CG1486	DRSC20508	3	
CG1486	DRSC28958	9	
Ccdc56 + mtTFB1	DRSC28766	3	
ppk15 (pickpocket 15)	DRSC14733	16	
ppk15 (pickpocket 15)	DRSC27947	6	
MCU (Mitochondrial calcium uniporter)	DRSC10339	7	
mof (males absent on the first)	DRSC18795	16	
mof (males absent on the first)	DRSC24125	7	
kairos	DRSC23286	13	
kairos	DRSC30011	4	
CG7079	DRSC16192	8	
CG7079	DRSC29827	4	
Pak (p21-activated kinase)	DRSC12602	12	
Pak (p21-activated kinase)	DRSC23302	10	
VhaM9.7-c (Vacuolar H[+] ATPase M9.7 subunit c)	DRSC08204	8	
VhaM9.7-c (Vacuolar H[+] ATPase M9.7 subunit c)	DRSC30083	3	
CG17049 (retired record)	DRSC06650	8	
CG32188 + CG32189	DRSC28810	10	
CG5880	DRSC15906	11	
Phs (Phaser)	DRSC10827	4	
Phs (Phaser)	DRSC29714	7	
CG5757	DRSC06951	2	
Osi20 (Osiris 20)	DRSC12568	9	
Osi20 (Osiris 20)	DRSC28630	5	
